Measured values: article PMC5177622, “Multivalent Histone and DNA Engagement by a PHD/BRD/PWWP Triple Reader Cassette Recruits ZMYND8 to K14ac-Rich Chromatin” (Cell Reports, 2016)

By UniProt entry, the sequences of proteins in these tests, tags left out.
UniProt Q13547: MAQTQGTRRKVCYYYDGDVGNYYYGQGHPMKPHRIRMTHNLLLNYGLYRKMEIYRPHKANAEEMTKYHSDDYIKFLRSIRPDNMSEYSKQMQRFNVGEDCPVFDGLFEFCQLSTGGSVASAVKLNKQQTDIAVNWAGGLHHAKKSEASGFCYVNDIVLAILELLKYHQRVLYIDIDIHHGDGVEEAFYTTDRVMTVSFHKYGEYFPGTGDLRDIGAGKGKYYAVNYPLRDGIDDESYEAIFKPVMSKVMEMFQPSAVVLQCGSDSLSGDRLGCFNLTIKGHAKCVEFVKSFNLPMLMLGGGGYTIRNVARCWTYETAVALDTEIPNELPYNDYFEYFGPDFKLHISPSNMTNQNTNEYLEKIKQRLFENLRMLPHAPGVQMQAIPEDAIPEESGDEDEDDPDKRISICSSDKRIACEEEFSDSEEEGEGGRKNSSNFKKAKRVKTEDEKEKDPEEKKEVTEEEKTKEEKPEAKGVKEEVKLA

Biological target: T1, 3×FLAG-ZMYND8 full length, wild type (human) (UniProt Q9ULU4)
T1 sequence: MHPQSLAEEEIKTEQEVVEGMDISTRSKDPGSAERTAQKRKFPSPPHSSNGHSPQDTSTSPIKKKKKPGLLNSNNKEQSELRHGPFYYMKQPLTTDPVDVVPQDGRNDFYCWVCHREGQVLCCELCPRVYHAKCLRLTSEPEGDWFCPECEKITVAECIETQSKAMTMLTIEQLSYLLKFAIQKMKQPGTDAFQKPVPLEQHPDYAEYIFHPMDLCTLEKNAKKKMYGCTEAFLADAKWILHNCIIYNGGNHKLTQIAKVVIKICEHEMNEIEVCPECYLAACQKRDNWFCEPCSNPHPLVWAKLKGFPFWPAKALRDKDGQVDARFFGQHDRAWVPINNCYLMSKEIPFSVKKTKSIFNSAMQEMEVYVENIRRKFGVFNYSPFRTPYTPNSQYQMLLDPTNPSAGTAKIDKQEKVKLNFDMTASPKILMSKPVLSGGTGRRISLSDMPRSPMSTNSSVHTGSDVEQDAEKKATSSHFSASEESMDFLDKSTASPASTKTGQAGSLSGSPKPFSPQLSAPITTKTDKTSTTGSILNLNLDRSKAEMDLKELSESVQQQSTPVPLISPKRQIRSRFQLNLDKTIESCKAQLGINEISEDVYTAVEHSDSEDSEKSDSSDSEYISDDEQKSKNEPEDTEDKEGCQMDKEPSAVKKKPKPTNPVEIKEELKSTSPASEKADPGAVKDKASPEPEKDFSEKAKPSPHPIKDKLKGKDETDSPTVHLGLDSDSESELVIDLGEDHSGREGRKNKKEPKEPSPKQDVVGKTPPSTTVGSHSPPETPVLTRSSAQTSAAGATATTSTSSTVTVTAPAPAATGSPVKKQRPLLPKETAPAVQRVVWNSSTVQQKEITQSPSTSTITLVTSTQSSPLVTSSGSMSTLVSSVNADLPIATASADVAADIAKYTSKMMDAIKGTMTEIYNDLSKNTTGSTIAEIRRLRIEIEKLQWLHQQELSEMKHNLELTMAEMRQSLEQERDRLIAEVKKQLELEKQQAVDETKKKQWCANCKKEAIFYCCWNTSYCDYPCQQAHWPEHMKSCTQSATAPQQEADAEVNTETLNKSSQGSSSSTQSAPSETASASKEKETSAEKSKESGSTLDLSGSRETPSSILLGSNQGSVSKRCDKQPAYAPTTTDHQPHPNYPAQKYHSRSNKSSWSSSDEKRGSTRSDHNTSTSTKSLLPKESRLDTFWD
Assay: affinity purification with mass spectrometry; full-length 3×FLAG ZMYND8 WT or BRD N/F from HEK293 cells; SAINTexpress, FDR 1% or lower; n = 2

binding: binds
Substance: HDAC1 (from UniProt Q13547 1-482) (enzyme)

No constants are given. Whether binding was seen depends on the method and setting. Binding seen in cells or lysates may run through a third protein. These calls come from enrichment with a bait or labelling near it, and not all partners need be listed. Where a sequence is shown, tags or fusion partners need not be part of it.
